Reference: paper PMC10163288
This is one part of the list.

B1: il2ra_site1_1z92_normal_mot_54e474eed2d0515e81978198f0f96ec2_0001_000000202_0001_15_30_H_._544ef0e38e907b7890d4414ebae48784_0001_1_0001_0000300011_0000001_0 (protein)
chain: TREELIEELAKLLGLPPETVEEDLERFERLAGDPRLAVKAFLQVLKKQGELTPEVEELLEQIERT
B2: il2ra_site1_2b5i_normal_mot_HHH_b2_04910_000000118_0001_1_19_H_._HHH_b1_02435_af2_0001_0000700035_0000001_0 (protein)
chain: SSSSSEEARELFREADEADRRGDQEEAEELLEEALRLAREAGNRALARMIESALEHVRDHGSSSS
B3: il2ra_site1_2b5i_sap_17_mot_HHH_b1_07759_af2_000000221_0001_42_56_H_._HHH_b1_07304_af2_0001_0000400035_0000001_0_0001_af2pred_0001_af2pred (protein)
chain: SSSSDEETEFALEVLRLLWHLVAQGNEEEAEELLKEAREFLEKAGDEVAVKDLEKALRKMKSSSS
B4: il2ra_site2_2erj_sap_19_mot_HHH_b1_08609_000000203_0001_43_56_H_._7b66ed016c170d635ef469617b4fe817_0001_0001_0000200019_0000001_1_0001 (protein)
chain: SSSSNEELRRLYELANRITHLAARGDEEEAEELLEELERLAKKTDSENAREIAEWLRKHLGSSSS
B5: il2ra_site2_3nfp_normal_mot_HHH_b2_06150_000000217_0001_39_53_H_._HHH_b1_00039_af2_0001_0000100002_0000001_0_af2pred_0001_1_af2pred_swapped (protein)
chain: SSSSSSSIEELAEEARKLAEELGDESTRHIIRALLFLYELLGDPRAEEELERLLEALKSSSSSSS
B6: il2ra_site2_2erj_normal_mot_ems_3hC_1315_af2_000000245_0001_45_63_H_._a2bf7c1b5df5f4a6a28f683756f784c8_0001_1_0001_0000100004_0000001_0_af2pred_0001_af2pred (protein)
chain: SEEVVEKLRRAVEEGTLEEVLEELLKEAREKGDPELLLAVLLAIRSLQLGVPPEEVVRKFEEALR
B7: il2ra_site1_3nfp_normal_mot_HHH_b1_01731_af2_000000028_0001_1_17_H_._aa6083f578daa685d2bbf802523f4e6a_0001_af2_0001_0000600023_0000001_0 (protein)
chain: SEVEEIAEKAEELADDYDIRQVLKILLELYKRIGDPYAEELLQRLLELLEEGDPEEAKKLVKKFI
B8: il2ra_site2_2erj_sap_18_mot_0ec3dbe5a60479548ca220575d6efbeb_0001_000000122_0001_35_49_H_._09e7cb7e633bb54c4420ff763e5edef5_0001_0001_0000300039_0000001_1_0001 (protein)
chain: SPEYEEILREAEEIVKEAKKNNDLHKVFEALNLVMHAFTKFLDDEEAEEEIKRVLEEIWREVHKS
B9: il2ra_site2_2erj_sap_22_mot_HHH_b1_06697_000000025_0001_41_54_H_._HHH_b2_07218_0001_0003100114_0000001_0_0001 (protein)
chain: SSSSEEDLRFTYEVANRLTHLISEGNKEEAEELLEEARRQLEEAGDEQAVEFLEEVVENLASSSS
B10: il2ra_site2_3nfp_normal_mot_HHH_b1_03851_000000147_0001_21_38_H_._HHH_b1_04525_0001_0000500031_0000001_0 (protein)
chain: SSSSDEEREEARRLFEELQELLEENDRHAVFEVLAELFELAARTGDEEAARLVLEIYAQLRSSSS
B11: il2ra_site2_3nfp_normal_mot_HHH_b1_03223_af2_000000037_0001_1_19_H_._44c1d34e7de0649e2bc3bb7207530e70_0001_0001_0000100005_0000001_0 (protein)
chain: SERERLLELAWELRNPEVFILISLVIELEERGDPEAAKEVEEVAEELLRGEIPPEEVQKIAAKLD
B12: il2ra_site2_3nfp_normal_mot_cdc2c7e6ec3782e52408388447766025_0001_000000024_0001_37_50_H_._HHH_b1_02097_0001_0000200004_0000001_0 (protein)
chain: SSSSDLFEIAELALEADELDREGNPEEAERVLEEALKLAEEAGNEWLEEYIRARLELIRRSSSSS
B13: il2ra_site2_2erj_sap_12_mot_HHH_b1_00376_000000139_0001_38_52_H_._HHH_b1_01250_0001_0000300012_0000001_0_0001 (protein)
chain: SSSSDWLHELYELAVELLHLSARRDKEEFERVYEEIRRLVEETNSESAKRILEHIQRLFEGSSSS
B14: il2ra_site2_2erj_normal_mot_HHH_b2_02949_000000065_0001_1_20_H_._HHH_b1_04625_0001_0000100006_0000001_0 (protein)
chain: SSSSDEELRFAFEALSRLMHLISNGNPEEAEKLVKEAREILEELGNPELAENLEEHFEDLLSSSS
B15: il2ra_site2_3nfp_normal_mot_HHH_b1_07556_000000077_0001_42_55_H_._HHH_b1_05931_0001_0000200019_0000001_0 (protein)
chain: SSSSDVKEEVERLLEEVRELLEEGNPEEAREVLAEAVHLAYERGDSEAFFLVAEFIFEIEQSSSS
B16: il2ra_site2_3nfp_normal_mot_HHH_b1_04762_000000120_0001_42_54_H_._HHH_b2_07046_0001_0000200026_0000001_0 (protein)
chain: SSSSDAEEYLRAALLLLREAVERGDEEQAERHAKILIQAAEAIGDEEVLKEAERLLEELNSSSSS
B17: il2ra_site1_2b5i_sap_22_mot_a1647c6a1bc1795bd61f8ac90a0f45d0_0001_1_000000140_0001_1_13_H_._HHH_b1_03195_0001_0000200020_0000001_0_0001 (protein)
chain: SSSDHNELARFATEVVWRLRWELGLSNEQARELNQRASELVWEGVSPEEIEEILRELAEELSSSS
B18: il2ra_site1_1z92_sap_7_mot_bc38a9f498cb1f18218c93d69bbf9b39_0001_af2_000000137_0001_15_32_H_._1af3d26173322421766602107bf007ea_0001_af2_0001_0000400003_0000001_ … (protein)
chain: SIKEDFEQAKKNGLSPEKAAYVLIKALAIMERVPPEEAIEILLRAAREKGDEELFEVVQELAEDP
B19: il2ra_site1_2b5i_normal_mot_HHH_b1_01949_af2_000000166_0001_1_19_H_._HHH_b2_06657_af2_0001_0000100001_0000001_0_af2pred_0001_af2pred (protein)
chain: SSSSDEEFEEVTELYRRASELFRRGNKEEARKLLEEALELAEEAGDEVAKEDLRRLLELLESSSS
B20: il2ra_site2_3nfp_normal_mot_HHH_b1_02297_000000279_0001_41_58_H_._HHH_b2_02322_0001_0000200006_0000001_0 (protein)
chain: SSSSSSSDEEEVEELLEEAKRIDDEFRFFAVLNEAAFIAYQSDNEELERLVKHVTQEFFSSSSSS
B21: il2ra_site1_2b5i_sap_9_mot_9a773f325bc24391a11cd301277c1e75_0001_1_000000041_0001_1_15_H_._ems_3hM_3702_0001_0000100013_0000001_0_0001_af2pred_0001_af2pred_1 (protein)
chain: SSSSSERVVELIEEANELFKNGDPEEAEKVAEEALRLAEEEGSPSLERFVRVALKILRESRSSSS
B22: il2ra_site2_2erj_normal_mot_HHH_b1_03107_000000098_0001_39_52_H_._HHH_b2_04766_0001_0000400028_0000001_1 (protein)
chain: SSSSSREAWELAARASARALELFKRGNPEEARELLEEALEEVRRLGNEYALRYLEFARRDLSSSS
B23: il2ra_site1_2b5i_normal_mot_HHH_b2_04910_000000118_0001_1_19_H_._HHH_b1_01115_0001_0000100003_0000001_0 (protein)
chain: SSSSSDETKRAAELFREADELDKNGNPEEAQKVLEEALEIAEEGGSPLARMIESALEQTRSSSSS
B24: il2ra_site2_3nfp_normal_mot_HHH_b2_08245_000000023_0001_41_55_H_._HHH_b1_02678_0001_0000100007_0000001_0 (protein)
chain: SSSSDREERVRELLKEAEEALEKGNPEEAKELLQEATHLAYEARDSELFFLIAELLFKVEHSSSS

Target: il2ra, P01589
Experiment: yeast display titration

Apparent Kd, inactive:
B1 no binding seen
B2 no binding seen
B3 no binding seen
B4 no binding seen
B5 no binding seen
B6 no binding seen
B7 no binding seen
B8 no binding seen
B9 no binding seen
B10 no binding seen
B11 no binding seen
B12 no binding seen
B13 no binding seen
B14 no binding seen
B15 no binding seen
B16 no binding seen
B17 no binding seen
B18 no binding seen
B19 no binding seen
B20 no binding seen
B21 no binding seen
B22 > 0.296 µM
B23 no binding seen
B24 no binding seen

Two entries picked at random from the list so far, as already listed:
Apparent Kd, inactive:
B11 no binding seen
B15 no binding seen
